From the supplement of paper PMC3334620
Whole data set: some 33,000 sequences, median “E-score (-0.5 to 0.5)” near -0.0034, cut for the highest 2% near 0.25. This is one part of the list.

Target: T1, Yap3 (UniProt P38749)
T1 sequence: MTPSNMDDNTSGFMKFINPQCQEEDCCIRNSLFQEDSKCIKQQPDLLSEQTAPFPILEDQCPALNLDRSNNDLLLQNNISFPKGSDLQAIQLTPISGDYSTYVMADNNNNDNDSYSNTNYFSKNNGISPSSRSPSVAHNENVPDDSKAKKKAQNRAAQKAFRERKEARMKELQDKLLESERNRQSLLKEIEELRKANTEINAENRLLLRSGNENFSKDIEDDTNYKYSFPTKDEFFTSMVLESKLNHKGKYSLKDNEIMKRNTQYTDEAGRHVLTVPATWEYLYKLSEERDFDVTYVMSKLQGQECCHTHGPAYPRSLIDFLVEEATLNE
Test: PBM E-score (8-mer binding enrichment) (E-score (-0.5 to 0.5)); higher = stronger / more preferred TF binding
Conditions: protein concentration: 100 nM; construct: GST-full length
Outline: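 Using PURExpress in vitro transcription/translation, GST-tagged yeast transcription factors were made in full-length or DNA-binding-domain form. These were applied at about 100-200 nM to double-stranded universal all-10-mer Agilent arrays, and bound protein was detected with fluorescent anti-GST. Scans were normalised with masliner before the Universal PBM Analysis Suite assigned E-scores to ungapped eight-base words pooled with their reverse complements.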

Sequence	PBM E-score
GTTCGTAA	0.192
GTTGTCCA	0.00253
CAATAGTA	0.165
AAGTACTC	0.124
AGCTGTGA	0.0179
CTTTAGTA	0.0328
CTCACATA	0.0695
TAGTGGAA	-0.0603
TCGGTGCA	0.00506
CATGCATA	0.112
TGAAGGCA	-0.0822
GCTTAACA	0.0767
ATCGAGCC	-0.178
CGGCCCCA	-0.315
GCGCCGGA	-0.178
CCGGCAGA	-0.103
CGGCGATC	-0.086
GACCAGGC	-0.101
ACGCTTAT	-0.04
AAGGTCAA	-0.0138
AACTCCAC	0.0221
GCAGAGCA	-0.267
CTTGCGAC	-0.235
ATAGGGTA	0.0624
GAGTCCTA	-0.192

Sequence	PBM E-score
CTAGGATC	-0.0812
ATTTGGAA	0.0794
TAATTCCA	0.112
GTGCAGAA	-0.0406
AGATTAGC	0.0497
AGAGACAG	-0.0352
TCCCCGAA	-0.217
GGTCCTAA	-0.0735
GGGAAGTA	-0.00126
CGCCTAGA	-0.0286
CATAGGCA	-0.0267
ATGGGCCG	-0.177
TTAATTAA	0.0675
GTCACTTA	0.227
GACGCATC	0.101
CCGCTGTA	0.117
CGCCCACG	-0.166
CAATCGCA	0.11
ACGACTCA	0.0349
CCTTAGGC	-0.219
AGTGTGCG	-0.0621
AGTATCTA	0.145
ACCCTGAC	-0.0668
ATTCGTCA	0.124
GGATCTGA	-0.09

Sequence	PBM E-score
CAATGGGA	-0.0493
GTTATTGA	0.117
ATGGTATC	0.175
ATGGTGTC	0.0603
ACGATTCC	0.0605
AAATATGC	0.00442
CCGTATTA	0.165
GAATGGAC	-0.0511
TAGGTATA	0.176
GGTGGCTA	-0.0493
TCCGCCCA	-0.11
CCAACCGC	0.125
AAATCCCA	0.0952
CCGGGTCC	-0.296
TAATACAA	0.279
GATTATTA	0.198
AATTTAGA	0.0678
AAGATTAT	0.176
TCCCTTAA	-0.0761
TTCTACAA	0.0955
GTTGCAGA	-0.0248
CTCGTTCA	0.0386
ATAAGCCG	0.129
CTTAAATC	0.151
TCAAGTAA	0.124

Sequence	PBM E-score
GCGTTCAA	-0.137
ACCAGACT	0.016
ACAATTAT	0.248
ATTTGTGG	0.114
ACGAAGTG	-0.0423
ATCCCAGG	-0.174
CCAGTTAC	-0.145
TGGCAAAA	0.104
CCTAAAAA	0.031
ACCGCACG	-0.124
ACTCGCAC	-0.0984
ATATAGTG	0.223
AGTCCGTA	-0.00747
GAAGAGCC	-0.0754
CCCCTATC	-0.207
AGGTCATC	0.0147
GCCCCAAC	0.0983
GTTCACTA	0.0227
CAATTGCG	-0.0461
CCCGTCGG	-0.171
AATGTTCC	0.0225
AAGAGGTC	-0.0859
GCCGTTAA	0.0915
ACAGCCTA	0.193
ATCAACTG	0.0953

2 neighbouring records already listed:
Sequence	PBM E-score
TAGTGGAA	-0.0603
TCGGTGCA	0.00506

Additional results

Sequence	PBM E-score
CAGGAGAC	-0.0362
GCATCCTA	-0.018
ACATAGCG	-0.091
CTTTGCAC	0.0895
AAACGATG	0.0224
TAGCTGCA	-0.236
ATATGGGC	0.097
ACAACGGT	-0.0271
ACACGGTA	0.0254
AAAGAGAT	-0.0227
TACAGATA	0.0119
AATCCTGC	0.0275
CCACCGAC	-0.127
CCACGCAA	-0.0495
CAAGAGCA	-0.0338
ATCCACCA	0.118
CTTGCTTA	0.0338
ACGCGCAC	-0.015
GAAGAGCA	-0.258
AACACATA	0.138
GTGCCTGA	-0.274
TCAACAAA	0.099
TACACCGA	-0.104
ATATGCCA	0.0749
AACCCGGT	-0.157

Sequence	PBM E-score
GAAAAGGC	-0.0242
AATTGGGG	-0.023
AGGCAGCC	-0.0602
AAAACGGG	0.207
CGCCTCCC	-0.256
GAAGCTCA	-0.114
TCGGCTAA	0.0362
AGACGGTA	0.127
TAGTTGGA	0.0793
AGAATGAA	0.147
CACCCAGC	-0.244
ACTCGAGT	0.219
GCTCAGAC	-0.0895
AACCCGTT	-0.113
AGAAGCGG	-0.0828
CCGTGGGC	-0.183
AGCCAGTC	-0.151
AGACTGCC	-0.0226
CACCACCG	-0.394
ACTAAGCT	0.0783
AGTTTGAG	-0.117
AGTATGAA	0.252
CAGAGGGC	-0.153
ACTACAGG	0.161
CTACCAGC	-0.158

Sequence	PBM E-score
ATGACGAA	0.0999
ACTCGGAC	0.0349
GAGGGTGA	-0.177
AACCCGGG	-0.215
AAGTACGG	-0.0366
TAGCTAGA	0.184
CTATGAGC	-0.161
CATAGTAG	0.148
AAGTCCCC	-0.243
ATTGTAAG	-0.0137
CAATGCTC	-0.0558
CAAACTTG	-0.0705
CACGACTC	0.036
GAACAACC	0.143
CGGCACCG	-0.109
AATGCCGC	0.112
ATAGGGGA	-0.0709
GGCCGTGA	-0.0401
GCAGTCGC	-0.14
AGGTACCC	-0.142
CATCCAAC	0.0736
CTTATAGC	0.0434

Pulled one by one from the entries so far, 5 records:
Sequence	PBM E-score
ATTGTAAG	-0.0137
GAGGGTGA	-0.177
AAGTCCCC	-0.243
AAGTACGG	-0.0366
CTATGAGC	-0.161
